According to publication PMC10567836:
These are yes or no findings as the source states them, for the method shown. Some entries that bind do so weakly or less than the wild type.

By UniProt entry, the sequences of proteins in these tests, tags left out. Where a name states a change or a piece, a line headed by the entry shows the natural chain unless it says otherwise. Residues count along the entry.
UniProt P08575: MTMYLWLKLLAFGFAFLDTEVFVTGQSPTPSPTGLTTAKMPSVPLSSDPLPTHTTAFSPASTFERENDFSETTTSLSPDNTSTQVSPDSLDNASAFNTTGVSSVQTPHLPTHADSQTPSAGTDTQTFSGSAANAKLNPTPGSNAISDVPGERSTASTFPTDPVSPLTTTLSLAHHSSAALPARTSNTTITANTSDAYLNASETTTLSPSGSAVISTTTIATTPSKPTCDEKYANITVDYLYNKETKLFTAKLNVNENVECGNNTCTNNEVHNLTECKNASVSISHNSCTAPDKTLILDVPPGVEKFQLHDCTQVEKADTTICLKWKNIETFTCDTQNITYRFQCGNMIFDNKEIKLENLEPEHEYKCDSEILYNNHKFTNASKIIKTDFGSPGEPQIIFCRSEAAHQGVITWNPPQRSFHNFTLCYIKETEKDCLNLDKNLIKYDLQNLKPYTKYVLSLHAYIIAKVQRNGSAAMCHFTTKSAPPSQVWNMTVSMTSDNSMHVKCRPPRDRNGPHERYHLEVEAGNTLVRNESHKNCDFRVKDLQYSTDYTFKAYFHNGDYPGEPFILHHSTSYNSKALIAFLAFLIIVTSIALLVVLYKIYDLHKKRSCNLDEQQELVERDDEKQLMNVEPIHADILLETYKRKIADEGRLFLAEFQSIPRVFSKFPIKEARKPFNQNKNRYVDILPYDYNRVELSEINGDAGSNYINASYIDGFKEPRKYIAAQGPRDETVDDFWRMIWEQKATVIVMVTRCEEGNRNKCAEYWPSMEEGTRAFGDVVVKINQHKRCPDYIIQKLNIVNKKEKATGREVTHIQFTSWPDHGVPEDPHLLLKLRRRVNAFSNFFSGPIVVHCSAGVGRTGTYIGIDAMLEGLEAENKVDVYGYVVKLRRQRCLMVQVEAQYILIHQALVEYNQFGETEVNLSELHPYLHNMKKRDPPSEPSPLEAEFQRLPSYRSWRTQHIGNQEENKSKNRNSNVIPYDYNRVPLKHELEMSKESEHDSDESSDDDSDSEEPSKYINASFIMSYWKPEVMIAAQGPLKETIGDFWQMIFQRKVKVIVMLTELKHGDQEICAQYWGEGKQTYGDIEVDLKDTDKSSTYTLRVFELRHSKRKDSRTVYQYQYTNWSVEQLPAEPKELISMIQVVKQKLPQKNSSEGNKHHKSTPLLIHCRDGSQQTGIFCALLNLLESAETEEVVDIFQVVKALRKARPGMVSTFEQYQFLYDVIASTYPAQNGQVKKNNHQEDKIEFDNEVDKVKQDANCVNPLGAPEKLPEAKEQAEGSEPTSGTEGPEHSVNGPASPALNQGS
human CD45-ABC isoform on transfected mouse 300-19 cells: residues 26-1306 of P08575

Legend:
[1] = target: human CD45-ABC isoform on transfected mouse 300-19 cells (human) (UniProt P08575); test: flow cytometry on cells; purified sec49K-His (0.11 µg) or UL11-Fc (1 µg) incubated with porcine PBMC, human PBMC, 300-19 cells and 300-19-CD45-ABC cells; detected with anti-E3/49K or anti-pUL11 mAb and labelled secondary reagents; only the binder purified
[2] = target: T1, HCMV protein pUL11 expressed on porcine L23 cells (human cytomegalovirus (HCMV) strain Merlin) (UniProt Q6SWB9); test: flow cytometry on cells; purified soluble CD45-His incubated with L23-E3/49K and L23-UL11 cells; bound protein detected with PE-conjugated anti-human CD45 mAb (HI30); several concentrations; only the binder purified
T1 sequence: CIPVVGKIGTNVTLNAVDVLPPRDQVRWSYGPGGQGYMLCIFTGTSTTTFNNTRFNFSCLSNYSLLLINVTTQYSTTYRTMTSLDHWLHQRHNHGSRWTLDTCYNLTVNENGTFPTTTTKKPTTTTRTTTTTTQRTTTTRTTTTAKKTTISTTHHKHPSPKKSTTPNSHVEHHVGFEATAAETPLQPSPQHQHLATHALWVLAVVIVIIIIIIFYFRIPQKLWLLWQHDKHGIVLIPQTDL

Substance | binding [1] | binding [2]
UL11-Fc fusion protein (predicted extracellular domain of pUL11 fused to the Fc domain of human IgG) (from UniProt Q6SWB9 32-224) | binds | 
Purified human CD45-His protein (soluble CD45) (from UniProt P08575 26-577) (receptor) |  | binds
